Series [1] can be described thus: Stability test (exposure test) of sensor at 30° C., 80% humidity. To be noted: additive in reagent layer; additive conc. 1.0-5.0 mM.
Series [2] can be described thus: Storage stability of reagent solution (response current of sensors made with stored vs fresh reagent solution). It counts as physicochemical. From the text:
A sensor having the configuration illustrated in FIG. 1 was manufactured. The detailed procedure will now be described. First, by sputtering palladium, 8 nm-thick conductive layer 3 was deposited on substrate 2 which was 30 mm in length, 7 mm in width and 0.2 mm in thickness and which contained polyethylene terephthalate as its main component. Thereafter, a 0.1 mm-width non-conductive track was formed by laser ablation, to form electrodes 31 to 33. Electrode 31 was designed to function as a working electrode, electrode 32 as a counter electrode, and electrode 33 as a sensing electrode.
Using a microsyringe, 1.2 μL of each reagent solution was applied to form reagent layer 4 in a shape of 2.2 mm diameter-circular. After formation of reagent layer 4, spacer 5 (0.145 mm thick) having a cut-out with a length of 3.4 mm a width of 1.2 mm and cover 6 were sequentially attached to the substrate having the electrodes formed thereon. In this way a sensor was manufactured that has a capillary having a volume of 0.6 μL. […]
Response current values of each sensor were measured using a series of glucose solutions of known concentrations. […]

Molecules are shown by their SMILES.

Regarding `NCCC[C@H](N)C(=O)O` [Ornithine, reference compound], the “Sensor stability % change in response current value between before and after 24 hours exposure at 30° C. and 80% humidity” value in series [1] is −22%. In addition, the “Reagent solution stability % change in response current value between before and after 24 hours storage at 25° C.” value in series [2] is on record as −19%.

(Values after patent US10761045B2, “Sensor, sensor system, method of manufacturing sensor, and method of measuring concentration of target substance” (PHC Holdings Corporation, priority 2010, dated 2020).)
